# Test results reported in paper PMC2475671.
# No constants are given. Whether binding was seen depends on the method and setting. Binding seen in cells or lysates may run through a third protein. Binding calls can cover weak binding; strength is not graded here.
# Experiments:
# [1] = target: T1, Orc2 (endogenous, S2 cells) (Drosophila (endogenous in S2 cells)) (UniProt Q24168); experiment: co-IP; extracts of transfected S2 cells, uninduced or copper sulfate induced; endogenous partner precipitated with anti-Orc2 or anti-dE2F1 serum (1:100) and protein G beads, anti-V5 immunoblot; IP buffer 150 mM NaCl, 50 mM Tris pH 8, 2.5 mM EDTA, 2.5 mM EGTA, 1% NP-40; on ice one hour
# T1 sequence: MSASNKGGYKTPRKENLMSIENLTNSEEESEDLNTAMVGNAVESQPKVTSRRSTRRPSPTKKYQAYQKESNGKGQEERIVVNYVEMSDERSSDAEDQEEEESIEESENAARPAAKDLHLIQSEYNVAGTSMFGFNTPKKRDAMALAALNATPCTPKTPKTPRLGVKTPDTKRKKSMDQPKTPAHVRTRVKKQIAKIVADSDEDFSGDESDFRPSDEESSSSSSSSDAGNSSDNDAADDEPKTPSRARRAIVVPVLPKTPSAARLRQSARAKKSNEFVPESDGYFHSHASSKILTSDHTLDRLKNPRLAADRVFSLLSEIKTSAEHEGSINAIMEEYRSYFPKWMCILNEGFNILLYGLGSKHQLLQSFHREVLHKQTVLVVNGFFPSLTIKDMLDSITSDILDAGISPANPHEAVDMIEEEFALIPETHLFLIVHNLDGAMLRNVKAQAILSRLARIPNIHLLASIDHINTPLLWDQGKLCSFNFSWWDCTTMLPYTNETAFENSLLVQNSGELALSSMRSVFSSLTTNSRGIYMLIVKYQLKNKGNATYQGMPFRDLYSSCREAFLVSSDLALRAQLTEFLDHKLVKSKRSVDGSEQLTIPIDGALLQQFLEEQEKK
# [2] = target: T1, Orc2 (endogenous, S2 cells) (Drosophila (endogenous in S2 cells)); experiment: co-IP; as for the other S2 extracts, but extracts precleared with rabbit serum and protein G beads, ethidium bromide included to eliminate DNA-mediated interactions, anti-V5 blot at 1:1000; IP with anti-HA (negative control), anti-dE2F1 and anti-Orc2
binding [1],binding [2],Substance
no binding,,Rbf1(1–150)-V5 (Drosophila) (domain or fragment)
binds,,Rbf1(1–330)-V5 (Drosophila) (domain or fragment)
binds,,Rbf1(1–345)-V5 (Drosophila) (domain or fragment)
no binding,,Rbf1(345–797)-V5 (Drosophila) (domain or fragment)
,binds,Rbf1(345–845)-V5 (Drosophila) (domain or fragment)
